Consider 1 molecule from US20110118181A1.

Chains of the proteins cited; added tags and fusions are not shown. Residues count along the entry.
UniProt Q8NBP7, residues 31-692: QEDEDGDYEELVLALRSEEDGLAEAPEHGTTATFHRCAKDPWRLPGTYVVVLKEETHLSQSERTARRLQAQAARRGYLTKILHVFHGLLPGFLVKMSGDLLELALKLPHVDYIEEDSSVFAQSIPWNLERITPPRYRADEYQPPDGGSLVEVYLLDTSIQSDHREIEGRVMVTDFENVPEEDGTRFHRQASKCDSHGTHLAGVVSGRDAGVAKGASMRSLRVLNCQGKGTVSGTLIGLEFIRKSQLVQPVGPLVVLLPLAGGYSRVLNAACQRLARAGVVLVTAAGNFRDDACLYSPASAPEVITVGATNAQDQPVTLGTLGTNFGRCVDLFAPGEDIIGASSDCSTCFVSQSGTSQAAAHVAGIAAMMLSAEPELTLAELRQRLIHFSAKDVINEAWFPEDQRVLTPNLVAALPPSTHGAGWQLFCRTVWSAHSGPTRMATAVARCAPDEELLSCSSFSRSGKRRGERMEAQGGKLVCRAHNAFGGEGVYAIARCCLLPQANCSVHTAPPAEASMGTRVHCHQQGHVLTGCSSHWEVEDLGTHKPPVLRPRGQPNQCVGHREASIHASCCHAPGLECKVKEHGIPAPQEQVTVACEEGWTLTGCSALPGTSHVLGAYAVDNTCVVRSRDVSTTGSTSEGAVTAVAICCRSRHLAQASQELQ

This assay deals with purified biotin-conjugated PCSK9 (UniProt Q8NBP7). Briefly: AlphaScreen competition of biotin-PCSK9 binding to His6-LDLR ectodomain.

Results are given in words; binding and its absence hold for the method and conditions named. Some results given as binding are weak or reduced against the parent protein; the word gives no strength.

B1: AnxA2-derived peptide extending from amino acid 49 to 97 (peptide)
peptide: KGVDEVTIVNILTNRSNAQRQDIAFAYQRRTKKELASALKSALSGHLET
Take B1: the binding entry is on record as “binds”.
